At least one read-out could not be matched to a standard name with certainty.
System: 5′FAM-ArUAA-3′TAMRA
Experiment: Enzymatic activity assay (FRET, fluorescent substrate cleavage)
Type: biochemical
Conditions: Table 1

| Molecule | Enzymatic Activity (kcat/Km; M−1s−1) |
| --- | --- |
| R4C/K7A/G38R/R39D/L86E/N88R/G89D/R91D/V118C RNase 1: variant of human RNase 1 with substitutions R4C, K7A, G38R, R39D, L86E, N88R, G89D, R91D, V118C (protein) KESCAKAFQRQHMDSDSSPSSSSTYCNQMMRRRNMTQRDCKPVNTFVHEPLVDVQNVCFQEKVTCKNGQGNCYKSNSSMHITDCRETRDSDYPNCAYRTSPKERHIIVACEGSPYVPCHFDASVEDST | 1.69 10^4 M−1s−1 |
| L86E/N88R/G89D/R91D RNase 1: variant of human RNase 1 with substitutions L86E, N88R, G89D, R91D (protein) KESRAKKFQRQHMDSDSSPSSSSTYCNQMMRRRNMTQGRCKPVNTFVHEPLVDVQNVCFQEKVTCKNGQGNCYKSNSSMHITDCRETRDSDYPNCAYRTSPKERHIIVACEGSPYVPVHFDASVEDST | 1.17e+07 M⁻¹ s⁻¹ |
| G38R/R39D/L86E/N88R/G89D/R91D RNase 1: variant of human RNase 1 with substitutions G38R, R39D, L86E, N88R, G89D, R91D (protein) KESRAKKFQRQHMDSDSSPSSSSTYCNQMMRRRNMTQRDCKPVNTFVHEPLVDVQNVCFQEKVTCKNGQGNCYKSNSSMHITDCRETRDSDYPNCAYRTSPKERHIIVACEGSPYVPVHFDASVEDST | 4.9e+06 M⁻¹ s⁻¹ |
| R4C/G38R/R39D/L86E/N88R/G89D/R91D/V118C RNase 1: variant of human RNase 1 with substitutions R4C, G38R, R39D, L86E, N88R, G89D, R91D, V118C (protein) KESCAKKFQRQHMDSDSSPSSSSTYCNQMMRRRNMTQRDCKPVNTFVHEPLVDVQNVCFQEKVTCKNGQGNCYKSNSSMHITDCRETRDSDYPNCAYRTSPKERHIIVACEGSPYVPCHFDASVEDST | 128000 M⁻¹ s⁻¹ |
